These are yes or no findings as the source states them, for the method shown. In cells and extracts the contact can be indirect. Some results given as binding are weak or reduced against the parent protein; the word gives no strength.
Target: phosphatase and tensin homolog (PTEN) (human (endogenous in HCE-T)) (UniProt P60484)
Experiment: co-IP; HCE-T cells lysed in immunoprecipitation cell lysis buffer; 10% of lysate as input; IgG as negative control; protein A/G magnetic beads; eluted by boiling; Western blotting

Chains of the proteins cited; added tags and fusions are not shown.
UniProt P60484: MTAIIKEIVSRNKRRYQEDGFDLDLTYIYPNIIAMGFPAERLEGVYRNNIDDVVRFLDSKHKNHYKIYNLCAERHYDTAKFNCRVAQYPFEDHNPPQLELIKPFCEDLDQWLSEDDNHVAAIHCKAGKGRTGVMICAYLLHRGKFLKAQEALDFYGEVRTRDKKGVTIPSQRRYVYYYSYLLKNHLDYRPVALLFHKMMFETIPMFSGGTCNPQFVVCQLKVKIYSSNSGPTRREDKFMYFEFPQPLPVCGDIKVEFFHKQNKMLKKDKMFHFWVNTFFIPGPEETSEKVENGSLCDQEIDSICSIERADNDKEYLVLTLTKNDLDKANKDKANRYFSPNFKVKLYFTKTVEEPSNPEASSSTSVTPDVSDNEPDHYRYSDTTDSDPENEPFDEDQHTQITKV
UniProt Q99497: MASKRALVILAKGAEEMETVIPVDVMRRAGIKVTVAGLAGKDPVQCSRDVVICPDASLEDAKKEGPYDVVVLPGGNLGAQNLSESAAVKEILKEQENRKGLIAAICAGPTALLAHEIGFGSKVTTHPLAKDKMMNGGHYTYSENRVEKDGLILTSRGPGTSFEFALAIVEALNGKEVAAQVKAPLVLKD

binding: binds
Substance: DJ-1 (from UniProt Q99497 1-189)
